# Measured values as given in PubChem BioAssay AID1347423 (Functional Genomics Laboratory (NCATS/FGL), 2020).
# Hit rate of the full screen: of about 52,000 sequences, about 210 (0.4%) were called active.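 The calls were made as follows: active = gene whose silencing raises cell survival under the drug, median off-target-corrected z-score across its silencing RNAs 2 or more; inactive = the rest.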 The list shows a part of the results.
# Assay: Resistance to Poly (ADP-Ribose) Polymerase inhibitor: Gene Identification via Genome-wide siRNA Screen
# Settings: mouse BRCA2 R2336H ES cells, olaparib, CellTiter-Glo viability; active compounds read high
# Procedure, shortened: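 Genome-wide siRNA screen (3 siRNAs/gene, 20 nM) in mouse ES cells carrying hypomorphic BRCA2 R2336H; olaparib 500 nM added 48 h post-transfection, CellTiter-Glo viability 72 h later. Normalized to plate-median negative control; MAD z-scores, gene median, seed-adjusted.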
row,Sequence,z-score
1,GGUCAUUGGUCGCUGGUCATT against Gzmm,inactive: 1.22
2,GCAAGUGUCUCAAGUGCAGTT against Lhx3,inactive: -0.64
3,GGACCUUAUUUGAAGCCUATT against D330012D11Rik,inactive: -2.09
4,GCAAAGUGGAUAUAGUGUCTT against Gprin1,inactive: 0.00305
5,GGAAGUGUUAUUAACCAAGTT against Rfxdc1,inactive: 0.0539
6,CGGAAUGAACAUCAUGCUCTT against 1700027A23Rik,inactive: 0.388
7,GGAGAAAUAAAUGACUUGCTT against Zswim2,inactive: 0.115
8,GCAACUAGUUAGUGCCUCCTT against Klf15,inactive: 1
9,GCGCAUCAAUCUUGGAGGATT against Actr5,inactive: 0.719
10,GGAAUUCCAAGUCAUUAUUTT against B230340J04Rik,inactive: 0.179
11,GGGUCAGGACUCCUUUAUGTT against 2700083B06Rik,inactive: 0.158
12,GGUAGAGGAUGACUUCCUGTT against Ptpn5,inactive: 0.121
13,GGGAUUCGACAGCAGAUCATT against H2-M10.4,inactive: -3.67
14,GGAUUAAUUAAUACUUGGCTT against 3010033P07Rik,inactive: 0.03
15,GGCUAAGUACGUCAAGAGCTT against 5430432M24Rik,inactive: 1.63
16,CGUAUCGCUGUUCAUGUUUTT against 5330438D12Rik,inactive: 0.244
17,GGCGAUGAUUAUAAGAUUATT against Copa,inactive: -1.3
18,GGAGAUCUACAUGACCUUCTT against Rgs10,inactive: -0.745
19,CGUACUCUGCCAAUGCUUCTT against Sec24b,inactive: 1.18
20,GGAGAUGCUGUUCUUUCCGTT against Casc3,inactive: 1.71
21,GGAUGAGAAUGGUUAUACUTT against Asz1,inactive: -0.751
22,CCUAUGCUAUGUAGUUUAATT against Adam21,active: 0.555
23,GGACAUUGACCUAAGCCCUTT against Pcnx,inactive: -0.353

row,Sequence,z-score
1,CCUUCAGAGUUUCAGACAATT against 4931417G12Rik,inactive: 0.272
2,GCAAGACAAUCGAAGAAUATT against Pgm2,inactive: -1.33
3,GGUUGUUACCUUACUGUACTT against Olfr532,inactive: 2.61
4,GGAACAUUCUAGAAUCUGUTT against Rps6kb2,inactive: -0.608
5,CGAUGACAUCGUGUUUGAGTT against Arrb2,inactive: 1.19
6,GGUCAUCCUUCUAUUCUCUTT against Olfr648,inactive: -0.285
7,GGUGUUCCACCAGGAUCACTT against Clca1,inactive: 0.46
8,GGUUCGGUAUUCUGAUACATT against 1700028K03Rik,inactive: -0.745
9,GGAAUGAGUCCUCAAUUAUTT against Car1,inactive: 2.45
10,GGAGUCAGUAAAGAUCCUCTT against Tgif2,inactive: 0.837
11,GGAAAACAAGACAGUUUCGTT against 1700012B15Rik,inactive: 0.453
12,GCUUCCUGAUGGACGGACUTT against 1700029I08Rik,inactive: -1.36
13,GGAUCUUCCUCAUCACCCUTT against Ube4a,inactive: 0.463
14,GGAAAAGGAAGAUUCUUGATT against Znrd1,inactive: -0.871
15,GCUGACAGUAGGAAACUAATT against Dmp1,inactive: 0.219
16,GGAUGCAAUGACCCAAUUUTT against Ecm1,inactive: 0.369
17,GGGUUACCGUAAGCUGUUGTT against Uts2r,inactive: 1.03
18,GGCUUGACAUCUAGGGACATT against Dbp,inactive: -1.08
19,GGGAAUGUUCAUACAAUAGTT against 2810481F14Rik,inactive: -0.08
20,CCUAUAGCCGCCUUAUGGATT against Arhgef15,inactive: 0.0737
21,GGAGACAGCAAAAGGGCUGTT against D930010J01Rik,inactive: -0.12
22,GGCACACAAUUUUCACUGATT against Pcdhb9,inactive: 1.19
23,GGACUUCUGGAUUGUUGGATT against Thpo,inactive: -1.91

row,Sequence,z-score
1,GCCCGUAAAACUCUUUCAGTT against 4930458L03Rik,inactive: 0.795
2,GGUAACAUCCCAGCUUUACTT against Pax7,inactive: -1.11
3,GGAAACAUUGUCAUCAUGATT against Olfr1299,inactive: 0.897
4,GGACUGAUCAUCUAUGACATT against AU042671,inactive: 0.666
5,GGUAAAAUCCCAGAACUGCTT against Serpinb1b,inactive: 1.32
6,CGACAAGGAGACCUACAAATT against Itm2b,inactive: -2.13
7,GCUACAGUUUGUGGGUGACTT against LOC574428,inactive: -0.0295
8,GGAUGUGCUCGGUUGGAAGTT against Mata2,inactive: 0.00669
9,GGCUGUAUGUAUAUAGUCCTT against Snrpb,inactive: -2.2
10,GGCUAUCUCGUAUUCUGAUTT against Olfr985,inactive: -0.668
11,CCGACUUCGUACAAUGACCTT against Slc1a6,inactive: 1.09
12,GGCAGAGACCUCAAAACCATT against Selpl,inactive: 0.839
13,CCGUUUACGGCCACUAACUTT against Phkg2,inactive: 0.289
14,GAUCUGUUACUCUUCUACUTT against Olfr1270,inactive: -0.119
15,GGACAUCAACUAUGCCUCUTT against Kif1a,inactive: 1.5
16,GGGAAACCGAGUCAAGAAGTT against Fgf11,inactive: 1.51
17,GGCUGCCUUCAUCUUUUCUTT against Fth1,inactive: -1.4
18,GGACAGAGCGUGCACUAGATT against Pqlc2,inactive: 0.262
19,GGUCUUCCGGGAGAUCAUUTT against Temt,inactive: -0.227
20,CCGAAAAUGAGAUAAAGUCTT against Polr2k,inactive: -2.3
21,GCCGUGAACUUGCCAUCAATT against 4930517K23Rik,inactive: -0.34

# Another view of part of the listing above.
row | Sequence | z-score
3 | GGAAACAUUGUCAUCAUGATT against Olfr1299 | inactive: 0.897
7 | GCUACAGUUUGUGGGUGACTT against LOC574428 | inactive: -0.0295
12 | GGCAGAGACCUCAAAACCATT against Selpl | inactive: 0.839
14 | GAUCUGUUACUCUUCUACUTT against Olfr1270 | inactive: -0.119
21 | GCCGUGAACUUGCCAUCAATT against 4930517K23Rik | inactive: -0.34
